Laboratory results: the supplement of paper PMC10849652
Some of the results follow.

Chains of the proteins cited; added tags and fusions are not shown. Lines headed by an entry give the natural chain unless they say otherwise; changes in a name come on top.
UniProt Q9BW04: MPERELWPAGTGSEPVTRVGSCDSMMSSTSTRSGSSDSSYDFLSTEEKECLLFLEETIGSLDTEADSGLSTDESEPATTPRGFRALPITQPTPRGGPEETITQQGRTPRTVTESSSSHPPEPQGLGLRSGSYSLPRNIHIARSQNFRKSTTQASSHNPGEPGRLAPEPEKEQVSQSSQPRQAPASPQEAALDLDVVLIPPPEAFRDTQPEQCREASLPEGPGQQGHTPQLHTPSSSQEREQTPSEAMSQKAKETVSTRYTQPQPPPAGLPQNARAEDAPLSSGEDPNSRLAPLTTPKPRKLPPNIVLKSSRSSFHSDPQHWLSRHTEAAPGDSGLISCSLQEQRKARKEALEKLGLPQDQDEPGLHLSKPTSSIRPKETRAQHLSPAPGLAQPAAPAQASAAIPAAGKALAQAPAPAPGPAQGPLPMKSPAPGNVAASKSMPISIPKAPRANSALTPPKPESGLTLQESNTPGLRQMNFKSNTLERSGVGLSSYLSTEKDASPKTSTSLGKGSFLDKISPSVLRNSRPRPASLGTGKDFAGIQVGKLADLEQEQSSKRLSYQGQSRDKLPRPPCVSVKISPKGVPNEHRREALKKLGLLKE
UniProt Q9BRK5: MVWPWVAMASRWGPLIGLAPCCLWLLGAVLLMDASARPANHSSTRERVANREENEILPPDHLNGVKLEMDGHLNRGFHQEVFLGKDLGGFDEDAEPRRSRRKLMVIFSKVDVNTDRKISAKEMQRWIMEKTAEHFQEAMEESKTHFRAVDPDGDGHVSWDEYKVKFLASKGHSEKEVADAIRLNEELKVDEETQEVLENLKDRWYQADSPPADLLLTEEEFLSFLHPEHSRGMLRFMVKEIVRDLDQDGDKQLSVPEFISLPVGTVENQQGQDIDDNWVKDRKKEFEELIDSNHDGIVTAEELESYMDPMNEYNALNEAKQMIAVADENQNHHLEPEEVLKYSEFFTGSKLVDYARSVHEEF
UniProt Q96ER3: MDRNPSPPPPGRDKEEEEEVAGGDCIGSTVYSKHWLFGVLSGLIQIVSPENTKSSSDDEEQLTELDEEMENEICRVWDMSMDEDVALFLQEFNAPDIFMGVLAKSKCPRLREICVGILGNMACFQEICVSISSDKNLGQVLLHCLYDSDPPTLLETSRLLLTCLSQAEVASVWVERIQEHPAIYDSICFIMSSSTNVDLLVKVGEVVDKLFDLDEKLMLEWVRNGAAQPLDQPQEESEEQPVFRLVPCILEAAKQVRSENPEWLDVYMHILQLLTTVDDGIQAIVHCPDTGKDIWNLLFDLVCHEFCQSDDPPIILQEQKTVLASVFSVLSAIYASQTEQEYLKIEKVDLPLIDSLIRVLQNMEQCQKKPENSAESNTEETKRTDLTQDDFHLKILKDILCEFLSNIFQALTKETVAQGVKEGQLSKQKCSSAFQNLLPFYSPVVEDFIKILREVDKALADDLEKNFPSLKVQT
UniProt Q9HCN8: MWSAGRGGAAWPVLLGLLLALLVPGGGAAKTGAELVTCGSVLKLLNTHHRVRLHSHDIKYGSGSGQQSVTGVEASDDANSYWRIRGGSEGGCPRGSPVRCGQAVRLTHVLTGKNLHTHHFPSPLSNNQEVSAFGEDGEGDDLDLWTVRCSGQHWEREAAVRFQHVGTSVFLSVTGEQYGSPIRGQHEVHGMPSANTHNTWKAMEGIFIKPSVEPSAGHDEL
UniProt Q9UHR5: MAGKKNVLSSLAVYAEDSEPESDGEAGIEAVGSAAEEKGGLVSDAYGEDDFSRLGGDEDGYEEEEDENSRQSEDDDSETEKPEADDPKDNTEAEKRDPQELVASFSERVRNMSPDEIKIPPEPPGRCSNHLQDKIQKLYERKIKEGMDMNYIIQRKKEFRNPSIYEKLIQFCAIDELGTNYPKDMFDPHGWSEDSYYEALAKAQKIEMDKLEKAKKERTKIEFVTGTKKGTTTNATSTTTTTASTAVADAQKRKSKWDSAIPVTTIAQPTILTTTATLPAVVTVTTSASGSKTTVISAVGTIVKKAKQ
UniProt O15126: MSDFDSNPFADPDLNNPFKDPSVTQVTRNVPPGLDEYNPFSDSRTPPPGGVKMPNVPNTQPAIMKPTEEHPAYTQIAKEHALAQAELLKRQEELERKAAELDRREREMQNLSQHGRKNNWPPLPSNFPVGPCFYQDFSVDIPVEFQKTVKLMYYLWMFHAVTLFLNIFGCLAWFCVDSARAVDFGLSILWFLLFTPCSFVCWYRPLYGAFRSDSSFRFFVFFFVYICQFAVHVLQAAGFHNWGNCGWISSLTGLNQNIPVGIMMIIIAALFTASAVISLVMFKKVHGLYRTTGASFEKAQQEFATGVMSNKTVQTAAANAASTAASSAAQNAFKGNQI
UniProt Q5VWQ0: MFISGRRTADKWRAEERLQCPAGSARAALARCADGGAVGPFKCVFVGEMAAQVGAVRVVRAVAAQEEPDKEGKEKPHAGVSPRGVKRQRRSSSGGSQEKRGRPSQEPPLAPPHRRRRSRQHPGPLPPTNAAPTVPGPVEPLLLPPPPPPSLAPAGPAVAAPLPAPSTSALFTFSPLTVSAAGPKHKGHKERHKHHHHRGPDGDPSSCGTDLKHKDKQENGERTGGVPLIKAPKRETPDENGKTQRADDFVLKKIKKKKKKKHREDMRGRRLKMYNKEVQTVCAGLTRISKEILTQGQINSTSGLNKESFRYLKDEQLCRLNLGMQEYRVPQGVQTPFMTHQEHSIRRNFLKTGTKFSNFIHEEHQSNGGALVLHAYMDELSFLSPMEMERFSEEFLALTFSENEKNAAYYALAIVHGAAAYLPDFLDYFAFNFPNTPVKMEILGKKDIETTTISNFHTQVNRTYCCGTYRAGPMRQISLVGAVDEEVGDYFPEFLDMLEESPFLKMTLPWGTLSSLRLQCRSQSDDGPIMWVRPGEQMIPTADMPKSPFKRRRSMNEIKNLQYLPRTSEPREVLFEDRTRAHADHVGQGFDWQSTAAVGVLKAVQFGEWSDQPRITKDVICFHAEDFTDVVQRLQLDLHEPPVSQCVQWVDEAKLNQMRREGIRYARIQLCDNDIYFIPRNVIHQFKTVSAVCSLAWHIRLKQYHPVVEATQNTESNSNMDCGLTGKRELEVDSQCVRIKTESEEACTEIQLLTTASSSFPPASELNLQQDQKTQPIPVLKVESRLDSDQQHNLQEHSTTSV
UniProt Q9Y265, whole entry, looked up: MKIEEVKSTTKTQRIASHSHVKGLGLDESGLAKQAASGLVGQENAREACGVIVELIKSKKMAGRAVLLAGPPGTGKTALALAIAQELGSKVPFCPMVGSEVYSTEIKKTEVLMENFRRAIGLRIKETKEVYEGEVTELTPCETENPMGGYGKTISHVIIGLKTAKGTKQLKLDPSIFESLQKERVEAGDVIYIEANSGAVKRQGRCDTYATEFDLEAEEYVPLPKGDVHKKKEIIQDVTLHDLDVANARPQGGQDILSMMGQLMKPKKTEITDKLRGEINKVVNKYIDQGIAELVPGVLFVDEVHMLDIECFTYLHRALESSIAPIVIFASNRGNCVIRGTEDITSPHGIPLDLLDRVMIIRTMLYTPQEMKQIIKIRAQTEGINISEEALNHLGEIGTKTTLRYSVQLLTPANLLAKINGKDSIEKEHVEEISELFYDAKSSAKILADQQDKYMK
UniProt Q9Y230, whole entry, looked up: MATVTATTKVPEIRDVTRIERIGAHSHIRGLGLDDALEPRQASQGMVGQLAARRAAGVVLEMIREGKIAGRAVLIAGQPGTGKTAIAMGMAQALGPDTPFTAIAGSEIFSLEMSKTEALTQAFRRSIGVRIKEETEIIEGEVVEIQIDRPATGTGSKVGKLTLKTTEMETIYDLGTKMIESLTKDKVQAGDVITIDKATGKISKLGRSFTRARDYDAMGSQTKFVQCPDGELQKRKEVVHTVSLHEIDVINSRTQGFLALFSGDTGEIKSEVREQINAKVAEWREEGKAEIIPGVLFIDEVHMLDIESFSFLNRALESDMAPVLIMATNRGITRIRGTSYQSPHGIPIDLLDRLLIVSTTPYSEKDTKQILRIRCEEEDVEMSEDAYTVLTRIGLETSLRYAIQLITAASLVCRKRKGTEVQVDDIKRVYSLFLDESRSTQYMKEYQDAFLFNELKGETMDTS
UniProt Q9Y3Z3: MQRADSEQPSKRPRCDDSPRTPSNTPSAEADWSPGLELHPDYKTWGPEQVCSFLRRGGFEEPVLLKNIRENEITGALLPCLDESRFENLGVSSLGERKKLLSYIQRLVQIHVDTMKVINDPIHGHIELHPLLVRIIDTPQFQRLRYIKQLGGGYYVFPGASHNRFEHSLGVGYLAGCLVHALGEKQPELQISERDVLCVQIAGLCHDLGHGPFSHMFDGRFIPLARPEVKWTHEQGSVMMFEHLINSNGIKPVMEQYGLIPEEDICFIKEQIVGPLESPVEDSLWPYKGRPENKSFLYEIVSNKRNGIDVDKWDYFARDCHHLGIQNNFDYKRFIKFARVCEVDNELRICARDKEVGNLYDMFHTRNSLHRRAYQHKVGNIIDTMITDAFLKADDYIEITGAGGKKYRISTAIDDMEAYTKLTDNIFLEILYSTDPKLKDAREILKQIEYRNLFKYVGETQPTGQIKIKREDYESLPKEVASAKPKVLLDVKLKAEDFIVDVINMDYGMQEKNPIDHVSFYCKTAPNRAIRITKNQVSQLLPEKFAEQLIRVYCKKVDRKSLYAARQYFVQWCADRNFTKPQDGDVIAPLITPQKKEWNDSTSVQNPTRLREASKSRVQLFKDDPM
UniProt Q96FV2: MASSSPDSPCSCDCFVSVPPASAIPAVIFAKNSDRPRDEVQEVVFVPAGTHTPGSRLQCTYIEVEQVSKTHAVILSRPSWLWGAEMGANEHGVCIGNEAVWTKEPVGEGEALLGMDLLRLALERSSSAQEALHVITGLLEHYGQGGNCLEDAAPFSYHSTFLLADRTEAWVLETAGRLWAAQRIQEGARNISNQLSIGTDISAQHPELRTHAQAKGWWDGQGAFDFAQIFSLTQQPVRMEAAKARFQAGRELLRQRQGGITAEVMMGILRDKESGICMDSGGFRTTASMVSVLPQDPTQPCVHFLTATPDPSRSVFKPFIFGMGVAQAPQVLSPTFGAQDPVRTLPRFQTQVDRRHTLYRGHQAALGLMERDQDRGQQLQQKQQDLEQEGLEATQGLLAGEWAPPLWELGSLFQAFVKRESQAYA
UniProt O14828: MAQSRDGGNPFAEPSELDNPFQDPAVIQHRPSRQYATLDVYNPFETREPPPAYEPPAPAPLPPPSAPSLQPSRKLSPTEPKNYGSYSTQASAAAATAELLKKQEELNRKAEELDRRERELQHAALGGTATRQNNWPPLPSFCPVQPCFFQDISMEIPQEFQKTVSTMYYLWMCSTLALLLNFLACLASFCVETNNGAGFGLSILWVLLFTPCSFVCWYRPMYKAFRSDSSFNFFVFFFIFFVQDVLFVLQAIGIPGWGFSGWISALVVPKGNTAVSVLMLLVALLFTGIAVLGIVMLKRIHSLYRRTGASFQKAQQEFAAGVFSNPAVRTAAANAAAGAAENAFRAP
UniProt Q9H446: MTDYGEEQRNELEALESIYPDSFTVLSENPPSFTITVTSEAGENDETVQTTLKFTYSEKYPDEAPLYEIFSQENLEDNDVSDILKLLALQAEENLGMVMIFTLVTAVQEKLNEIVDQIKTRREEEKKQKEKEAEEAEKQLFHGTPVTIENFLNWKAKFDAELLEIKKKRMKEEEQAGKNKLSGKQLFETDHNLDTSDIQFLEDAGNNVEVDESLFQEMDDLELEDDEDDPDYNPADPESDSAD
UniProt P31040: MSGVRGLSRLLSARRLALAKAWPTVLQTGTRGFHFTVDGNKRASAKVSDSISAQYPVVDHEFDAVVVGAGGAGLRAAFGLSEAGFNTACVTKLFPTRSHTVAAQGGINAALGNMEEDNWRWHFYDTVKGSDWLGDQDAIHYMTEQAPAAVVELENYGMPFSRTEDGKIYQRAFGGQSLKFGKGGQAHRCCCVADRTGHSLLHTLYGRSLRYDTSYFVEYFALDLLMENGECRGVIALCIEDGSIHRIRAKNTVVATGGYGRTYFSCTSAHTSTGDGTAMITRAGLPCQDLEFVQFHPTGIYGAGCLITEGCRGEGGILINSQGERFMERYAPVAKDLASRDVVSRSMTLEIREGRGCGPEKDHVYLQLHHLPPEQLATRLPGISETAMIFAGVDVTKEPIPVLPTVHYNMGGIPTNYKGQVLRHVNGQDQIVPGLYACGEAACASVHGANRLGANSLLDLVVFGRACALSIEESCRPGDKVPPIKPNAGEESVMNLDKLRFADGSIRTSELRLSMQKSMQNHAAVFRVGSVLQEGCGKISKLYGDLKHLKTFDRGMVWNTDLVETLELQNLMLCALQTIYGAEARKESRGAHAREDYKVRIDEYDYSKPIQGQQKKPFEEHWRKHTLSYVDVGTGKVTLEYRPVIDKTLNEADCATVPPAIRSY

Key:
Assay in all cases: log2 fold change, soluble protein after heating vs DMSO (PISA); higher = thermal stabilisation; K562 cells, 10 uM, 30 min; active = over 0.2 and 3.5 SD of the protein, either way, in both replicates (recomputed)
saracatinib = compound: CN1CCN(CCOc2cc(OC3CCOCC3)c3c(Nc4c(Cl)ccc5c4OCO5)ncnc3c2)CC1 [saracatinib]
Summary of the method: (§1)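 Quantification of soluble protein used TMTpro 16plex LC-MS/MS, with channel sums equalised. Samples were the supernatant after 21,000xg for 90 min of pooled aliquots from K562 cells (2×10^6 cells/mL) treated with 10 μM compound for 30 min, heated for 3 min over 48°C-58°C, and extracted in PBS with 0.5% NP-40 at 4°C. Values, from duplicates, describe thermal stability against control samples on a log2 fold-change scale.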

sotrastaurin = compound: CN1CCN(c2nc(C3=C(c4c[nH]c5ccccc45)C(=O)NC3=O)c3ccccc3n2)CC1 [sotrastaurin]
Summary of the method: as §1

alvocidib = compound: CN1CC[C@H](c2c(O)cc(O)c3c(=O)cc(-c4ccccc4Cl)oc23)[C@H](O)C1 [alvocidib]
Summary of the method: as §1

Tubastatin A = compound: CN1CCc2c(c3ccccc3n2Cc2ccc(C(=O)NO)cc2)C1 [Tubastatin A]
Summary of the method: as §1

[1] = compound: CNC(=O)C1=CC=CC=C1NC2=NC(=NC=C2Cl)NC3=C(C=C(C=C3)N4CCOCC4)OC
Summary of the method: as §1

defactinib = compound: CNC(=O)c1ccc(Nc2ncc(C(F)(F)F)c(NCc3nccnc3N(C)S(C)(=O)=O)n2)cc1 [defactinib]
Summary of the method: as §1

rucaparib = compound: CNCc1ccc(-c2[nH]c3cc(F)cc4c3c2CCNC4=O)cc1 [rucaparib]
Summary of the method: as §1

[2] = compound: CNc1nc(-c2ccc3c(N)n[nH]c3c2)cc(N2C[C@@H](C(=O)NC3CCCCC3)CC[C@H]2C)n1
Summary of the method: as §1

encorafenib = compound: COC(=O)N[C@@H](C)CNc1nccc(-c2cn(C(C)C)nc2-c2cc(Cl)cc(NS(C)(=O)=O)c2F)n1 [encorafenib]
Summary of the method: as §1

[3] = compound: COC(=O)[C@H](CCSC)NC(=O)C1=C(C=C(C=C1)NC[C@H](CS)N)C2=CC=CC=C2
Summary of the method: as §1

[4] = compound: COC1=CC=C(C=C1)CN2C=CC3=C2C=C(C=C3)C(=O)NO
Summary of the method: as §1

filanesib = compound: CON(C)C(=O)N1N=C(c2cc(F)ccc2F)S[C@@]1(CCCN)c1ccccc1 [filanesib]
Summary of the method: as §1

zotarolimus = compound: CO[C@H]1C[C@@H]2CC[C@@H](C)[C@@](O)(O2)C(=O)C(=O)N2CCCC[C@H]2C(=O)O[C@H]([C@H](C)C[C@@H]2CC[C@H](n3cnnn3)[C@H](OC)C2)CC(=O)[C@H](C)/C=C(\C)[C@@H](O)[C@@H](OC)C(=O)[C@H](C)C[C@H](C)/C=C/C=C/C=C/1C [zotarolimus]
Summary of the method: as §1

idasanutlin = compound: COc1cc(C(=O)O)ccc1NC(=O)[C@@H]1N[C@@H](CC(C)(C)C)[C@](C#N)(c2ccc(Cl)cc2F)[C@H]1c1cccc(Cl)c1F [idasanutlin]
Summary of the method: as §1

alisertib = compound: COc1cc(Nc2ncc3c(n2)-c2ccc(Cl)cc2C(c2c(F)cccc2OC)=NC3)ccc1C(=O)O [alisertib]
Summary of the method: as §1

[5] = compound: COc1cc2nc(-c3cc(F)ccc3O)nc(N[C@@H]3CNC[C@H]3C(C)(C)O)c2cc1OC
Summary of the method: as §1

gefitinib = compound: COc1cc2ncnc(Nc3ccc(F)c(Cl)c3)c2cc1OCCCN1CCOCC1 [gefitinib]
Summary of the method: as §1

[6] = compound: COc1cccc2cc(-c3nc([C@H]4CC[C@H](C(=O)O)CC4)n4ncnc(N)c34)[nH]c12
Summary of the method: as §1

lapatinib = compound: CS(=O)(=O)CCNCc1ccc(-c2ccc3ncnc(Nc4ccc(OCc5cccc(F)c5)c(Cl)c4)c3c2)o1 [lapatinib]
Summary of the method: as §1

pictilisib = compound: CS(=O)(=O)N1CCN(Cc2cc3nc(-c4cccc5[nH]ncc45)nc(N4CCOCC4)c3s2)CC1 [pictilisib]
Summary of the method: as §1

Measured: log2 fold change

SARG (UniProt Q9BW04)
inactive: saracatinib 0.013 | sotrastaurin 0.024 | alvocidib 0.032 | Tubastatin A -0.057 | [1] -0.07 | defactinib -0.026 | rucaparib -0.089 | [2] -0.118 | encorafenib -0.051 | [3] -0.016 | [4] -0.017 | filanesib -0.062 | zotarolimus -0.045 | idasanutlin -0.005 | alisertib 0.035 | [5] 0.029 | gefitinib -0.03 | [6] 0.04 | lapatinib -0.015 | pictilisib -0.012

SDF4 (UniProt Q9BRK5)
inactive: saracatinib 0.011 | sotrastaurin 0.027 | alvocidib 0.011 | Tubastatin A -0.005 | [1] 0.041 | defactinib 0.004 | rucaparib 0.05 | [2] -0.08 | encorafenib 0 | [3] -0.04 | [4] -0.033 | filanesib 0.026 | zotarolimus 0.021 | idasanutlin -0.054 | alisertib -0.061 | [5] 0.029 | gefitinib 0.104 | [6] 0.012 | lapatinib 0.004 | pictilisib -0.01

SAAL1 (UniProt Q96ER3)
active: alvocidib 0.355
inactive: saracatinib 0.001 | sotrastaurin -0.044 | Tubastatin A -0.089 | [1] 0.042 | defactinib 0.203 | rucaparib 0.031 | [2] -0.069 | encorafenib 0.017 | [3] -0.031 | [4] -0.179 | filanesib -0.032 | zotarolimus 0.016 | idasanutlin -0.11 | alisertib -0.067 | [5] 0.214 | gefitinib -0.055 | [6] 0.018 | lapatinib -0.002 | pictilisib -0.018

SDF2L1 (UniProt Q9HCN8)
inactive: saracatinib -0.115 | sotrastaurin 0.024 | alvocidib 0.014 | Tubastatin A 0.028 | [1] 0.032 | defactinib 0.036 | rucaparib 0.003 | [2] -0.003 | encorafenib 0.012 | [3] 0.022 | [4] -0.027 | filanesib 0.054 | zotarolimus 0.006 | idasanutlin 0.021 | alisertib -0.015 | [5] -0.017 | gefitinib -0.028 | [6] 0.015 | lapatinib 0.025 | pictilisib 0.045

SAP30BP (UniProt Q9UHR5)
inactive: saracatinib 0.051 | sotrastaurin 0.005 | alvocidib 0.037 | Tubastatin A -0.016 | [1] -0.049 | defactinib -0.023 | rucaparib 0.012 | [2] -0.141 | encorafenib -0.056 | [3] 0.037 | [4] 0.018 | filanesib -0.009 | zotarolimus -0.018 | idasanutlin 0.039 | alisertib -0.04 | [5] 0.018 | gefitinib 0.013 | [6] 0.02 | lapatinib -0.006 | pictilisib -0.122

Quoted at random: 2 records from the list, in no set order.
SAAL1 (UniProt Q96ER3)
active: alvocidib 0.355
inactive: saracatinib 0.001 | sotrastaurin -0.044 | Tubastatin A -0.089 | [1] 0.042 | defactinib 0.203 | rucaparib 0.031 | [2] -0.069 | encorafenib 0.017 | [3] -0.031 | [4] -0.179 | filanesib -0.032 | zotarolimus 0.016 | idasanutlin -0.11 | alisertib -0.067 | [5] 0.214 | gefitinib -0.055 | [6] 0.018 | lapatinib -0.002 | pictilisib -0.018

SAP30BP (UniProt Q9UHR5)
inactive: saracatinib 0.051 | sotrastaurin 0.005 | alvocidib 0.037 | Tubastatin A -0.016 | [1] -0.049 | defactinib -0.023 | rucaparib 0.012 | [2] -0.141 | encorafenib -0.056 | [3] 0.037 | [4] 0.018 | filanesib -0.009 | zotarolimus -0.018 | idasanutlin 0.039 | alisertib -0.04 | [5] 0.018 | gefitinib 0.013 | [6] 0.02 | lapatinib -0.006 | pictilisib -0.122

(next part)

SCAMP1 (UniProt O15126)
inactive: saracatinib 0.023 | sotrastaurin 0.035 | alvocidib 0.03 | Tubastatin A 0.002 | [1] -0.033 | defactinib 0.009 | rucaparib -0.029 | [2] -0.042 | encorafenib -0.038 | [3] 0.019 | [4] -0.081 | filanesib -0.017 | zotarolimus -0.035 | idasanutlin -0.024 | alisertib 0.017 | [5] 0.027 | gefitinib 0.021 | [6] 0.095 | lapatinib -0.021 | pictilisib 0.075

RTN3 isoform 5 (UniProt O95197)
inactive: saracatinib -0.139 | sotrastaurin 0.114 | alvocidib -0.191 | Tubastatin A -0.158 | [1] 0.011 | defactinib -0.163 | rucaparib 0.163 | [2] 0.156 | encorafenib 0.063 | [3] -0.111 | [4] -0.105 | filanesib -0.058 | zotarolimus 0.103 | idasanutlin -0.078 | alisertib -0.118 | [5] -0.018 | gefitinib -0.074 | [6] 0.106 | lapatinib -0.1

RSBN1 (UniProt Q5VWQ0)
inactive: saracatinib 0.023 | sotrastaurin -0.025 | alvocidib 0.132 | Tubastatin A 0.237 | [1] 0.085 | defactinib 0.096 | rucaparib 0.148 | [2] 0.073 | encorafenib 0.126 | [3] 0.009 | [4] -0.185 | filanesib 0.376 | zotarolimus -0.057 | idasanutlin 0.344 | alisertib -0.037 | [5] -0.082 | gefitinib -0.05 | [6] -0.112 | lapatinib 0.127 | pictilisib -0.115

RUVBL1 (UniProt Q9Y265)
inactive: saracatinib 0.021 | sotrastaurin 0.043 | alvocidib 0.042 | Tubastatin A -0.048 | [1] 0.018 | defactinib 0.018 | rucaparib -0.021 | [2] -0.026 | encorafenib -0.047 | [3] 0.03 | [4] -0.009 | filanesib 0 | zotarolimus -0.034 | idasanutlin -0.034 | alisertib -0.086 | [5] 0.033 | gefitinib 0.005 | [6] 0.033 | lapatinib -0.033 | pictilisib 0.047

RUVBL2 (UniProt Q9Y230)
inactive: saracatinib 0.033 | sotrastaurin 0.026 | alvocidib 0.038 | Tubastatin A -0.011 | [1] 0.013 | defactinib 0.008 | rucaparib -0.056 | [2] 0.003 | encorafenib -0.029 | [3] 0.008 | [4] -0.034 | filanesib -0.015 | zotarolimus -0.033 | idasanutlin -0.048 | alisertib -0.089 | [5] 0.004 | gefitinib 0.001 | [6] 0.016 | lapatinib 0.013 | pictilisib -0.005

SAMHD1 (UniProt Q9Y3Z3)
inactive: saracatinib 0.042 | sotrastaurin 0.054 | alvocidib -0.006 | Tubastatin A -0.021 | [1] -0.199 | defactinib -0.007 | rucaparib 0.046 | [2] -0.055 | encorafenib -0.002 | [3] 0.026 | [4] 0.014 | filanesib -0.013 | zotarolimus -0.007 | idasanutlin -0.01 | alisertib 0.01 | [5] 0.013 | gefitinib -0.032 | [6] 0.059 | lapatinib -0.046 | pictilisib -0.052

SCRN2 (UniProt Q96FV2)
inactive: saracatinib -0.015 | sotrastaurin -0.001 | alvocidib 0.23 | Tubastatin A 0.015 | [1] -0.021 | defactinib -0.044 | rucaparib -0.127 | [2] 0.017 | encorafenib -0.036 | [3] 0.079 | [4] 0.034 | filanesib -0.087 | zotarolimus -0.291 | idasanutlin -0.109 | alisertib 0.051 | [5] -0.12 | gefitinib 0.015 | [6] -0.021 | lapatinib -0.076 | pictilisib -0.058

SCAMP3 (UniProt O14828)
inactive: saracatinib 0.057 | sotrastaurin 0.024 | alvocidib 0.032 | Tubastatin A -0.056 | [1] 0.046 | defactinib 0 | rucaparib 0.009 | [2] -0.061 | encorafenib -0.026 | [3] 0.059 | [4] 0.032 | filanesib -0.053 | zotarolimus -0.089 | idasanutlin 0.033 | alisertib -0.101 | [5] -0.077 | gefitinib 0.017 | [6] -0.024 | lapatinib 0.037 | pictilisib -0.024

RWDD1 (UniProt Q9H446)
inactive: saracatinib 0.045 | sotrastaurin -0.01 | alvocidib -0.043 | Tubastatin A -0.003 | [1] 0.047 | defactinib -0.068 | rucaparib -0.079 | [2] -0.016 | encorafenib 0.007 | [3] 0.011 | [4] 0.029 | filanesib -0.035 | zotarolimus 0.026 | idasanutlin -0.048 | alisertib -0.021 | [5] -0.039 | gefitinib 0.024 | [6] 0.012 | lapatinib 0.117 | pictilisib -0.018

SDHA (UniProt P31040)
inactive: saracatinib 0.049 | sotrastaurin 0.002 | alvocidib 0.038 | Tubastatin A -0.021 | [1] 0.013 | defactinib 0.012 | rucaparib -0.033 | [2] -0.036 | encorafenib -0.023 | [3] 0.01 | [4] 0.085 | filanesib -0.093 | zotarolimus -0.033 | idasanutlin -0.007 | alisertib -0.057 | [5] -0.054 | gefitinib 0 | [6] -0.011 | lapatinib -0.005 | pictilisib -0.01

SCAF4 (UniProt O95104)
inactive: saracatinib 0.114 | sotrastaurin -0.013 | alvocidib 0.043 | Tubastatin A -0.004 | [1] -0.07 | defactinib -0.047 | rucaparib 0.124 | [2] 0.008 | encorafenib 0.017 | [3] -0.002 | [4] -0.053 | filanesib 0.006 | zotarolimus -0.016 | idasanutlin 0.036 | alisertib 0.075 | [5] -0.123 | gefitinib 0.041 | [6] 0.025 | lapatinib -0.092 | pictilisib 0.076
